From PMC5159797
Results are given in words; binding and its absence hold for the method and conditions named. In cells and extracts the contact can be indirect. Binding can be weak; no strength is given. Sequences can lack the tags named with a protein.

Target: T1, GST-SKAP (UniProt Q9Y448)
T1 sequence: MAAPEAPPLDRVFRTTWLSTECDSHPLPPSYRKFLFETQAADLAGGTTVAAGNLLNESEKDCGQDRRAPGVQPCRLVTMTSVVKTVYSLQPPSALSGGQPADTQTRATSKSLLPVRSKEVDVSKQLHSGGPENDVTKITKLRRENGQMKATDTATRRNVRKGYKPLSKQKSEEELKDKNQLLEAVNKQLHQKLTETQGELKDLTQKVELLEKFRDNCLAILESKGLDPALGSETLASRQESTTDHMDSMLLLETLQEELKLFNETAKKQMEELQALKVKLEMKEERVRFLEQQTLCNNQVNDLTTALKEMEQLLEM
Experiment: pull-down; GST fusion protein-bound sepharose beads incubated 2 h at 4 °C with HEK293T cell lysates containing GFP-tagged proteins; PBS, 0.1% Triton X-100; anti-GFP blot; only the target purified

Row | binding | Substance
1 | binds | GFP-Kif2b C-terminus (deletion mutant) (human) (domain or fragment)
2 | binds | GFP-Kif2b N-terminus (deletion mutant) (human) (domain or fragment)
